Data as given in PMC5192218.
These are yes or no findings as the source states them, for the method shown. In cells and extracts the contact can be indirect. Some binding calls cover weakened binding; strength is not graded here.

Sequences of proteins named here, by UniProt entry; tags and fusion partners are left off.
UniProt Q9QUI0: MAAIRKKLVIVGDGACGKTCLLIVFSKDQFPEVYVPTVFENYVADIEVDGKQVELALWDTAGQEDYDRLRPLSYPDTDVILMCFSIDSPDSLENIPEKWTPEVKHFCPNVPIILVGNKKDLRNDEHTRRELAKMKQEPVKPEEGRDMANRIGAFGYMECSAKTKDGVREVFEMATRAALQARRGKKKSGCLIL

Target: T1, p120-catenin (endogenous, co-immunoprecipitation with RhoA) (UniProt P30999)
T1 sequence: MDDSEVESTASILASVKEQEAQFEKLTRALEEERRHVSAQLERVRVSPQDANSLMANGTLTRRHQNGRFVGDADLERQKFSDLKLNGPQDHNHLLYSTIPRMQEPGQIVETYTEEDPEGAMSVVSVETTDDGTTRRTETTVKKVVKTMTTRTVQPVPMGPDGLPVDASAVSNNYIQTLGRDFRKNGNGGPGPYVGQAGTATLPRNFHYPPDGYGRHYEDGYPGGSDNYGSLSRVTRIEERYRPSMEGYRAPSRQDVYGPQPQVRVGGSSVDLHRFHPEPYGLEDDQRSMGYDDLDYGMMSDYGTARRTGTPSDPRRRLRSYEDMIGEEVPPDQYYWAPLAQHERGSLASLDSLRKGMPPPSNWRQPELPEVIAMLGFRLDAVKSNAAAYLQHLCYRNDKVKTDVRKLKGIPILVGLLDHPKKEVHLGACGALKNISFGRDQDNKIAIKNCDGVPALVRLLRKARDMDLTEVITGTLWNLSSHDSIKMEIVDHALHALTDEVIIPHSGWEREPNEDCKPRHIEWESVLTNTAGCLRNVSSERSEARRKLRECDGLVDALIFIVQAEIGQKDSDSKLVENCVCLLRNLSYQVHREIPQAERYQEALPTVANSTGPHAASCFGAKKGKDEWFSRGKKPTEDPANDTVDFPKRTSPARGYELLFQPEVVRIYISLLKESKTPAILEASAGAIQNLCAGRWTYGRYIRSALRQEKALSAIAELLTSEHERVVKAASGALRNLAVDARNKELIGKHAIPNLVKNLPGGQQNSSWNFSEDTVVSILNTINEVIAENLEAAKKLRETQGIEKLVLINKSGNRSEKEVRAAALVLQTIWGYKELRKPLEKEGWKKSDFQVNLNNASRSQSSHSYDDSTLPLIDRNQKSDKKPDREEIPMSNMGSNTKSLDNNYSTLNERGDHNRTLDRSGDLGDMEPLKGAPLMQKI
Test: co-IP; co-immunoprecipitation of endogenous p120 and RhoA, detected by western blotting; cells and precipitating antibody not stated

binding: binds
Substance: RhoA (endogenous, co-immunoprecipitation with p120) (from UniProt Q9QUI0 1-193)
